# Results taken from the supplement of paper PMC8728848.
# The list shows a part of the results.
# Key:
# Assay in all cases: glycan array binding signal (z-score within array); higher = stronger binding
# Settings in all cases: glycan notation: IUPAC condensed, linker removed
# [1] = molecular target: Fuc(a1-2)Gal(b1-4)GlcNAc(b1-3)Gal(b1-4)GlcNAc(b1-2)Man(a1-3)[Fuc(a1-2)Gal(b1-4)GlcNAc(b1-3)Gal(b1-4)GlcNAc(b1-2)Man(a1-6)]Man(b1-4)GlcNAc(b1-4)GlcNAc
# How it was run: (§1)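 Glycan array binding is given as a within-array Z-score, which can be read as non-binding when negative. The arrays, 3228 of them, came from the Consortium for Functional Glycomics database and were retained only where the protein sequence was available. Z-scores were averaged across arrays of the same protein sequence at different concentrations or buffers and across linkers.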
# [2] = molecular target: Fuc(a1-2)Gal(b1-4)GlcNAc(b1-3)Gal(b1-4)GlcNAc(b1-3)Gal(b1-4)GlcNAc
# How it was run: as §1
# [3] = molecular target: Fuc(a1-2)Gal(b1-4)GlcNAc(b1-3)GalNAc
# How it was run: as §1
# [4] = molecular target: Fuc(a1-2)Gal(b1-4)GlcNAc(b1-3)[Fuc(a1-2)Gal(b1-4)GlcNAc(b1-6)]GalNAc
# How it was run: as §1
# [5] = molecular target: Fuc(a1-2)Gal(b1-4)GlcNAc(b1-3)[Fuc(a1-3)[Gal(b1-4)]GlcNAc(b1-6)]Gal(b1-4)Glc
# How it was run: as §1
# [6] = molecular target: Fuc(a1-2)Gal(b1-4)GlcNAc(b1-6)GalNAc
# How it was run: as §1
# [7] = molecular target: Fuc(a1-2)Gal(b1-4)GlcNAc6S
# How it was run: as §1
# [8] = molecular target: Fuc(a1-2)Gal(b1-4)[Fuc(a1-3)]GlcNAc
# How it was run: as §1
# [9] = molecular target: Fuc(a1-2)Gal(b1-4)[Fuc(a1-3)]GlcNAc(b1-2)Man(a1-3)[Fuc(a1-2)Gal(b1-4)[Fuc(a1-3)]GlcNAc(b1-2)Man(a1-6)]Man(b1-4)GlcNAc(b1-4)[Fuc(a1-6)]GlcNAc
# How it was run: as §1
# [10] = molecular target: Fuc(a1-2)Gal(b1-4)[Fuc(a1-3)]GlcNAc(b1-2)[Fuc(a1-2)Gal(b1-4)[Fuc(a1-3)]GlcNAc(b1-4)]Man(a1-3)[Fuc(a1-2)Gal(b1-4)[Fuc(a1-3)]GlcNAc(b1-2)Man(a1-6)]Man(b1-4)GlcNAc(b1-4)GlcNAc
# How it was run: as §1
# [11] = molecular target: Fuc(a1-2)Gal(b1-4)[Fuc(a1-3)]GlcNAc(b1-3)Gal(b1-4)[Fuc(a1-3)]GlcNAc
# How it was run: as §1
# [12] = molecular target: Fuc(a1-2)Gal(b1-4)[Fuc(a1-3)]GlcNAc(b1-3)Gal(b1-4)[Fuc(a1-3)]GlcNAc(b1-3)Gal(b1-4)[Fuc(a1-3)]GlcNAc
# How it was run: as §1
# [13] = molecular target: Fuc(a1-2)Gal(b1-4)[Fuc(a1-3)]GlcNAc(b1-3)GalNAc
# How it was run: as §1
# [14] = molecular target: Fuc(a1-2)Gal(b1-4)[Fuc(a1-3)]GlcNAc(b1-3)[Neu5Ac(a2-6)Gal(b1-4)GlcNAc(b1-6)]Gal(b1-4)Glc
# How it was run: as §1
# [15] = molecular target: Fuc(a1-2)Gal3S(b1-4)GlcNAc
# How it was run: as §1
# [16] = molecular target: Fuc(a1-2)Gal6S(b1-3)GlcNAc
# How it was run: as §1
# [17] = molecular target: Fuc(a1-2)Gal6S(b1-3)GlcNAc6S
# How it was run: as §1
# Fuc(a1-2)Gal6S(b1-4)Glc = molecular target: Fuc(a1-2)Gal6S(b1-4)Glc
# How it was run: as §1
# [18] = molecular target: Fuc(a1-2)Gal6S(b1-4)Glc6S
# How it was run: as §1
# Fuc(a1-2)[Gal(a1-3)]Gal = molecular target: Fuc(a1-2)[Gal(a1-3)]Gal
# How it was run: as §1
# [19] = molecular target: Fuc(a1-2)[Gal(a1-3)]Gal(b1-3)GalNAc
# How it was run: as §1
# [20] = molecular target: Fuc(a1-2)[Gal(a1-3)]Gal(b1-3)GalNAc(b1-3)Gal(a1-4)Gal(b1-4)Glc
# How it was run: as §1
# [21] = molecular target: Fuc(a1-2)[Gal(a1-3)]Gal(b1-3)GlcNAc
# How it was run: as §1
# [22] = molecular target: Fuc(a1-2)[Gal(a1-3)]Gal(b1-3)GlcNAc(b1-2)Man(a1-3)[Fuc(a1-2)[Gal(a1-3)]Gal(b1-3)GlcNAc(b1-2)Man(a1-6)]Man(b1-4)GlcNAc(b1-4)GlcNAc
# How it was run: as §1
# [23] = molecular target: Fuc(a1-2)[Gal(a1-3)]Gal(b1-3)GlcNAc(b1-2)Man(a1-3)[Fuc(a1-2)[Gal(a1-3)]Gal(b1-3)GlcNAc(b1-2)Man(a1-6)]Man(b1-4)GlcNAc(b1-4)[Fuc(a1-6)]GlcNAc
# How it was run: as §1
# [24] = molecular target: Fuc(a1-2)[Gal(a1-3)]Gal(b1-3)GlcNAc(b1-3)GalNAc
# How it was run: as §1
# [25] = molecular target: Fuc(a1-2)[Gal(a1-3)]Gal(b1-3)GlcNAc(b1-6)GalNAc
# How it was run: as §1
# [26] = molecular target: Fuc(a1-2)[Gal(a1-3)]Gal(b1-4)Glc
# How it was run: as §1
# [27] = molecular target: Fuc(a1-2)[Gal(a1-3)]Gal(b1-4)GlcNAc
# How it was run: as §1
# [28] = molecular target: Fuc(a1-2)[Gal(a1-3)]Gal(b1-4)GlcNAc(b1-2)Man
# How it was run: as §1
binder,measurement,setting,value
Epa2 (Candida glabrata) (protein) MGSSHHHHHHSSGLVPRGSHMASSKDPTSFPMGCSPQVLKTQPGLAVKLYSYGHPVPGCAYNTYQYPDFPRSGYKKERKLADITGVNGRIDIDLKPNDPCRVLSGNLPSNYNYQNTLTYTNFTMILYGYFQPKVTGYHTFNLEADDLLFMNLGAGNAFDCCRAESTLDNFGNYQSYSIWGTDKATADLTVFLVSGIYYPIRLFYVNRDNNAVLDFSFSTEFNKEIIHDFTSYFFSASDEEQCPGNI,glycan array binding signal (z-score),[1],0.042
same,glycan array binding signal (z-score),[2],-0.48
same,glycan array binding signal (z-score),[3],0.309
same,glycan array binding signal (z-score),[4],0.094
same,glycan array binding signal (z-score),[5],-0.076
same,glycan array binding signal (z-score),[6],2.02
same,glycan array binding signal (z-score),[7],-0.856
same,glycan array binding signal (z-score),[8],-0.941
same,glycan array binding signal (z-score),[9],0.021
same,glycan array binding signal (z-score),[10],0.204
same,glycan array binding signal (z-score),[11],-0.605
same,glycan array binding signal (z-score),[12],-0.648
same,glycan array binding signal (z-score),[13],4.06
same,glycan array binding signal (z-score),[14],0.379
same,glycan array binding signal (z-score),[15],-0.52
same,glycan array binding signal (z-score),[16],-0.448
same,glycan array binding signal (z-score),[17],1.81
same,glycan array binding signal (z-score),Fuc(a1-2)Gal6S(b1-4)Glc,-0.517
same,glycan array binding signal (z-score),[18],1.03
same,glycan array binding signal (z-score),Fuc(a1-2)[Gal(a1-3)]Gal,0.088
same,glycan array binding signal (z-score),[19],-0.272
same,glycan array binding signal (z-score),[20],-0.435
same,glycan array binding signal (z-score),[21],-0.553
same,glycan array binding signal (z-score),[22],-0.311
same,glycan array binding signal (z-score),[23],-0.346
same,glycan array binding signal (z-score),[24],0.104
same,glycan array binding signal (z-score),[25],-0.162
same,glycan array binding signal (z-score),[26],-0.664
same,glycan array binding signal (z-score),[27],-0.1
same,glycan array binding signal (z-score),[28],-0.03

# Reformatted bar-delimited: part of the list above.
binder | measurement | setting | value
Epa2 (Candida glabrata) (protein) MGSSHHHHHHSSGLVPRGSHMASSKDPTSFPMGCSPQVLKTQPGLAVKLYSYGHPVPGCAYNTYQYPDFPRSGYKKERKLADITGVNGRIDIDLKPNDPCRVLSGNLPSNYNYQNTLTYTNFTMILYGYFQPKVTGYHTFNLEADDLLFMNLGAGNAFDCCRAESTLDNFGNYQSYSIWGTDKATADLTVFLVSGIYYPIRLFYVNRDNNAVLDFSFSTEFNKEIIHDFTSYFFSASDEEQCPGNI | glycan array binding signal (z-score) | [14] | 0.379
same | glycan array binding signal (z-score) | [15] | -0.52
